Results taken from US20240262904A1 (SHANGHAI MABGEEK BIOTECH, published 2024).
No constants are given. Whether binding was seen depends on the method and setting. Binding can be weak; no strength is given.

Chains of the proteins cited; added tags and fusions are not shown. Lines headed by an entry give the natural chain unless they say otherwise; changes in a name come on top.
UniProt Q969D9: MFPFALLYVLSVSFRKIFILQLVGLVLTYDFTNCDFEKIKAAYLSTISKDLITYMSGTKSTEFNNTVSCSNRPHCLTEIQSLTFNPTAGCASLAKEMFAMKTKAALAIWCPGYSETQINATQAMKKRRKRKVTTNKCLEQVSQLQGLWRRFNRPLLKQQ

Target: human TSLP antigen tagged with Flag (hTSLP-Flag) (human) (UniProt Q969D9)
Assay: SPR, Biacore T200

B1: humanized anti-human TSLP antibody 163H (antibody, human IgG1, kappa, V domains shown)
VH: EVQLVESGGGLVQPGGSLRLSCAASGFTFSSFGMHWVRQAPGKGLEWVSYISSGSSNIYYADTVKGRFTISRDNAKNSLYLQMNSLRAEDTAVYYCARDGGSRRHYYVMDYWGQGTLVTVSS
VL: EIVLTQSPATLSLSPGERATLSCKASQDVSPAVAWYQQKPGQSPRLLIYSASYRYTGVPARFSGSGSGTDFTLTISSLEPEDFAVYYCQQHYSSPFTFGQGTKLEIKR
notes: Humanized, human IgG1 constant region
For B1, the binding was “binds”.
